Measured values taken from the supplement of paper PMC10849652.
Some of the results follow.

Chains of the proteins cited; added tags and fusions are not shown. Lines headed by an entry give the natural chain unless they say otherwise; changes in a name come on top.
UniProt Q9H0K6: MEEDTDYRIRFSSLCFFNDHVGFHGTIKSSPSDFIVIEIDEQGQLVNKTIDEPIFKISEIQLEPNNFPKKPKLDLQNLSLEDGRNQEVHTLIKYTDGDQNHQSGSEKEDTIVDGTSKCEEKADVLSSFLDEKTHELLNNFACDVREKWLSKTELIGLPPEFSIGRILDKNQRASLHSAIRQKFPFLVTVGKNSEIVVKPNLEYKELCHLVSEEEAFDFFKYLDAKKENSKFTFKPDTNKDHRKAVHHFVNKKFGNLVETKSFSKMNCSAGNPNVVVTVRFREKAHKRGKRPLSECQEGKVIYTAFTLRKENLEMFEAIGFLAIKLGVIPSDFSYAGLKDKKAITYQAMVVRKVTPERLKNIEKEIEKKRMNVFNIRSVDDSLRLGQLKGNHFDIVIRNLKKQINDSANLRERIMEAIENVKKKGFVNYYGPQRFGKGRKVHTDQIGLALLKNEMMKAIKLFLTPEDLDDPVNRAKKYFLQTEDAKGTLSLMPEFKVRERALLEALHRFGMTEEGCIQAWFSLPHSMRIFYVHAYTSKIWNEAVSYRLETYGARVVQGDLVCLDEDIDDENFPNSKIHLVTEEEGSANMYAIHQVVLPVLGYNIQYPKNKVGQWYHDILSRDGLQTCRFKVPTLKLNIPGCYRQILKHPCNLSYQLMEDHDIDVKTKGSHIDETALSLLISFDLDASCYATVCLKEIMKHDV
UniProt P25787: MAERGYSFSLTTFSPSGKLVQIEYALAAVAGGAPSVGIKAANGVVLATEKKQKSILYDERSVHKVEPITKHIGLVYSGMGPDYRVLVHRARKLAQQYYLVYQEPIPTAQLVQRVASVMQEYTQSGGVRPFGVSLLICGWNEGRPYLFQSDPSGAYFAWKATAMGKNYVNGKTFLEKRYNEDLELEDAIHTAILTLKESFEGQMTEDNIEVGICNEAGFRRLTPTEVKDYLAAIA
UniProt P47897: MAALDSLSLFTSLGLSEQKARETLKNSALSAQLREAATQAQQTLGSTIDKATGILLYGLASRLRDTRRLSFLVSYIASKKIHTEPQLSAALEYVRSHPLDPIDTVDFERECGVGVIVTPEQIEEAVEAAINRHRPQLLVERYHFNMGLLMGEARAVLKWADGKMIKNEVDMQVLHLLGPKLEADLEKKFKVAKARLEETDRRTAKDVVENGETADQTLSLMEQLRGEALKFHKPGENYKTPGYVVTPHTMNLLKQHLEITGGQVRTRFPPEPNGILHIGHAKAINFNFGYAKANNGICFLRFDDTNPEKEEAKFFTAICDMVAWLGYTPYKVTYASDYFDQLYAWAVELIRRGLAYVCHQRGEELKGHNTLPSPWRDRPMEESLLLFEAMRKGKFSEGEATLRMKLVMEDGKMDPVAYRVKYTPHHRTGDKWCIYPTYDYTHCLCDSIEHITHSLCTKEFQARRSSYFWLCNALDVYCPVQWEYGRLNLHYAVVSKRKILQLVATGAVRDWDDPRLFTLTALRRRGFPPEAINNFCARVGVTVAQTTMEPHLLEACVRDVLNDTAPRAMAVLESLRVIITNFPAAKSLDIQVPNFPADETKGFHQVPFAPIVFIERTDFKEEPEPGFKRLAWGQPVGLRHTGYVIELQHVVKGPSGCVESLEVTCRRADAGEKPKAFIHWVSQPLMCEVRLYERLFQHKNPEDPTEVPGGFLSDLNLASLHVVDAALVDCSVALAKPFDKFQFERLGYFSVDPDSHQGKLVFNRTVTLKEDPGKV
UniProt Q7Z6K3: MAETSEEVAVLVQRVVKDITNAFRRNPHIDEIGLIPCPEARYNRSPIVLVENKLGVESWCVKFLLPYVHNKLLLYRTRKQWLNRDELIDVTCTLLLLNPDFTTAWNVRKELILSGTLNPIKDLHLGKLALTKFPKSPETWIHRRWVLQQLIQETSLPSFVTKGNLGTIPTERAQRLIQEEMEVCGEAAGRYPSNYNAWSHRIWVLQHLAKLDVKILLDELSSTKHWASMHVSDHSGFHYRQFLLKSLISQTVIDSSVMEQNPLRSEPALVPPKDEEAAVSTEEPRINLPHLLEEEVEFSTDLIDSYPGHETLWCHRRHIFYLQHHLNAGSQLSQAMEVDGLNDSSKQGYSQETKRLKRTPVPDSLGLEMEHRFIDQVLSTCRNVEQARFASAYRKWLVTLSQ
UniProt Q8TAA3: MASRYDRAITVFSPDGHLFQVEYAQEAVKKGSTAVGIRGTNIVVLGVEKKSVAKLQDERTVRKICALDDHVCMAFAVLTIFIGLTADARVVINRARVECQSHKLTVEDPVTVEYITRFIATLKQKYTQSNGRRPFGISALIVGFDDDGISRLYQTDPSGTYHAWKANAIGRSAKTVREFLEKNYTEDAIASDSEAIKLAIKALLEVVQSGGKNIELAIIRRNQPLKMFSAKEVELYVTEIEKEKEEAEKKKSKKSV
UniProt Q96I23: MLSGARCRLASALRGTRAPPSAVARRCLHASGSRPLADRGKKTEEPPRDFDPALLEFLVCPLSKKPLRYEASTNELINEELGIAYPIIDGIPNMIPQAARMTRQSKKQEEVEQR

What follows are targets tested with c1cn2cc(-c3ccc4cn[nH]c4c3)nc(Nc3ccc(N4CCOCC4)cc3)c2n1 [entospletinib] (assay: log2 fold change, soluble protein after heating vs DMSO (PISA); higher = thermal stabilisation; K562 cells, 10 uM, 30 min; active = over 0.2 and 3.5 SD of the protein, either way, in both replicates (recomputed)).
In short: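 Thermal stability values are relative to control samples and come from duplicates. They are expressed as log2 fold changes. For measurement, K562 cells (2×10^6 cells/mL) received 10 μM compound for 30 min, and aliquots were heated for 3 min over 48°C-58°C, pooled, and extracted at 4°C in PBS with 0.5% NP-40. Soluble protein, the supernatant after 21,000xg for 90 min, was quantified by TMTpro 16plex LC-MS/MS with equalised channel sums.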

log2 fold change, inactive:
PYCR1 (UniProt J3QKT4) -0.222
PUS7L (UniProt Q9H0K6) 0
PSMA2 (UniProt P25787) 0.025
PSMB2, A0A087WVV1 -0.539
QARS (UniProt P47897) 0.165
PWP1 (UniProt Q13610) 0.149
PTAR1 (UniProt Q7Z6K3) 0.082
PSMA8 (UniProt Q8TAA3) 0.04
PYURF (UniProt Q96I23) -0.021
PSMD4 (UniProt Q5VWC4) -0.257

Not a retest: entries from further up.
log2 fold change, inactive:
PSMA8 (UniProt Q8TAA3) 0.04
PYURF (UniProt Q96I23) -0.021
